# Primary screen of a compound library

Amino acid sequences for entries named in this document (tags omitted). Residues count along the entry.
UniProt I6X8D2, whole entry: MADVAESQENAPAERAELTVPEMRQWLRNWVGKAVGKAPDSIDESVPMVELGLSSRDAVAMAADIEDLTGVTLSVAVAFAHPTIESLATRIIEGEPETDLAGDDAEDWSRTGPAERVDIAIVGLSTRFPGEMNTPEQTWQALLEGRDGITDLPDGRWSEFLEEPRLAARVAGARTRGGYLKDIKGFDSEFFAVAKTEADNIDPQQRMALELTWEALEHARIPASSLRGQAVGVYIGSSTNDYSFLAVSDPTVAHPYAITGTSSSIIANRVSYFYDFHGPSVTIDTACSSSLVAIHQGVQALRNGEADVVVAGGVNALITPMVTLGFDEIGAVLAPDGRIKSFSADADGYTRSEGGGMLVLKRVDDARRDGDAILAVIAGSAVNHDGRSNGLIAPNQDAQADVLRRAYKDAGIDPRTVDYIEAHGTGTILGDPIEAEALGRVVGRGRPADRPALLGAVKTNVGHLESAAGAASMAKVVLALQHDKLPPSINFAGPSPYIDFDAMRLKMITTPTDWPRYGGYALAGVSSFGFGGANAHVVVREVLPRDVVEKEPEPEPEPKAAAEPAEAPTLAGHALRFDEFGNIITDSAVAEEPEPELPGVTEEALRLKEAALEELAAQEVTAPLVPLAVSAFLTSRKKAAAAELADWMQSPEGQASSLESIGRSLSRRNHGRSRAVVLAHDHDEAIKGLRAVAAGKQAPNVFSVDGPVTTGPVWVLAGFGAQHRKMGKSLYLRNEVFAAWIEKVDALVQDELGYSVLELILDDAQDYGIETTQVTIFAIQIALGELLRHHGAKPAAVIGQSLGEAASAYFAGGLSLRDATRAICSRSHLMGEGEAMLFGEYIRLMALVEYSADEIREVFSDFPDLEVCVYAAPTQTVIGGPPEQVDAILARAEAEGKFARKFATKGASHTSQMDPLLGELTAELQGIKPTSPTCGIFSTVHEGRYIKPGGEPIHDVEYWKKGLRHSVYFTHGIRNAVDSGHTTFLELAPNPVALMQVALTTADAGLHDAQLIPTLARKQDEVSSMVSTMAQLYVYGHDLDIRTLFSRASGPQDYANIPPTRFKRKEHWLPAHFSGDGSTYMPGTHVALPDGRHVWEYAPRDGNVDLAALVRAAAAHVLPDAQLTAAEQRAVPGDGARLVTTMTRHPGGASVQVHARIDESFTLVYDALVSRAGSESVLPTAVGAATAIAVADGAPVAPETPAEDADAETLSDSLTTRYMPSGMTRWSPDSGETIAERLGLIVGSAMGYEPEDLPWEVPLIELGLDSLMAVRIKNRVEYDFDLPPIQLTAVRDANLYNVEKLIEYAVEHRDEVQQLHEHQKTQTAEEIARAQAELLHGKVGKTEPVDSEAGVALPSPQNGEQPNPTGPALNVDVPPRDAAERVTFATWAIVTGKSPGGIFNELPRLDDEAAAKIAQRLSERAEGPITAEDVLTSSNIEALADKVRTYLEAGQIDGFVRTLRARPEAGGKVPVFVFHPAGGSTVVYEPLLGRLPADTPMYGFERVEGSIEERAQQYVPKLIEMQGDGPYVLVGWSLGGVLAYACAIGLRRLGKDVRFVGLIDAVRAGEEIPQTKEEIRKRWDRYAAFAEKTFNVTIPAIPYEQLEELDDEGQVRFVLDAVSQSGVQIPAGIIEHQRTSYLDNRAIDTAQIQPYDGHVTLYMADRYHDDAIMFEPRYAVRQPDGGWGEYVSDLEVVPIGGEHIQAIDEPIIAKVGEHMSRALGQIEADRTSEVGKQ
UniProt A4I591, 1-473: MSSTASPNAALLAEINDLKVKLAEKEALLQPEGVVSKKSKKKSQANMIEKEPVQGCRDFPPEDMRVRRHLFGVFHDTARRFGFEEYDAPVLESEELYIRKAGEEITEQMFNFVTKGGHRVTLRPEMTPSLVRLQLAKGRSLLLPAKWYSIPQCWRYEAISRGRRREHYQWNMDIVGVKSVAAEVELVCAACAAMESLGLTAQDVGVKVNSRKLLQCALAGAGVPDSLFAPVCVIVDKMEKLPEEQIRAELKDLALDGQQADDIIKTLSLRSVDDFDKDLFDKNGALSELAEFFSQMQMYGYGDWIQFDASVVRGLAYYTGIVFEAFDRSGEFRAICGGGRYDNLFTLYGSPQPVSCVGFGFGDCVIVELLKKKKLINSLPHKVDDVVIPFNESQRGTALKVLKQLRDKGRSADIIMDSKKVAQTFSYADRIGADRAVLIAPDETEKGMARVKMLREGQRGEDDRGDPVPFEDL

Measurements from “University of Dundee, Small-Polar-MMV Screening Library” (2021), ChEMBL document CHEMBL3988442.

Pks13 thioesterase: 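Enzyme assay of the thioesterase domain of polyketide synthase 13; the read-out is not stated. Target: Polyketide synthase Pks13, Mycobacterium tuberculosis (UniProt I6X8D2). Compounds at 30 µM. Higher reads as stronger inhibition (inferred from which compounds were picked for retests). Size under these conditions: about 67,000 compounds, about 300 of them at 50% or above in at least one test.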
LiHisRS: 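Enzyme assay of histidyl-tRNA synthetase; the read-out is not stated. Target: Histidine-tRNA ligase, Leishmania infantum (UniProt A4I591). Compounds at 30 µM. Higher reads as stronger inhibition (inferred: compounds with an IC50 in retests scored well above the rest). The assay is labelled LdHisRS but filed under L. infantum. Size under these conditions: about 69,000 compounds, about 410 of them at 50% or above in at least one test.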

Each number is a percent effect as filed.
How 0% and 100% were set is not recorded. Most values in the screen are low, and negative values occur.
Compounds were drawn at random from those tested, without regard to their results.
A dash means the value is not listed here; it may have been measured.

Compound,Pks13 thioesterase,LiHisRS
Cc1cc(S(=O)(=O)N2C[C@H](C3CC3)[C@@H](N)C2)c(C)s1,-3.482,9.836
COCC1CC2(CCN(Cc3nccn3C)CC2)CN1c1ncccn1 (stereo not drawn),-33.25,28.57
CCCSCC(=O)NCc1cccc(CN(C)CC)c1,-2.991,3.529
Cc1nc2cc(O)nn2c(C)c1CCC(=O)NCc1cc(Br)cs1,22.8,17.39
CC(=O)c1ccc(N2CCC3(CCC(=O)N(CCCO)C3)CC2)nc1,33.66,6.579
c1coc(CN2CCO[C@H]3[C@H](OCC4CC4)CC[C@@H]32)c1,-8.29,15.38
COCC(NC(=O)c1cnn(C)c1)c1cccc(C(F)(F)F)c1 (stereo not drawn),-9.646,5.769
CNc1cc(C(=O)N(C)Cc2cc(-c3cccs3)n[nH]2)ccn1,-4.836,16.8
Cc1ccccc1N1CC2(CCN(Cc3nccn3C)C2)CC1=O (stereo not drawn),-5.071,15
CCN(CC1CN(Cc2c(C)noc2C)CCO1)c1cccnn1 (stereo not drawn),-5.875,0.8929
O=C(c1ccnnc1)N1CCN2C[C@H](Oc3cccnc3)C[C@H]2C1,-17.19,6.195
Cc1ccc(C(=O)N2C[C@@H]3OCCN(C)[C@@H]3C2)cn1,-18.28,24
O=C(O)C1CCCN(C(=O)CCn2ccc3c(Br)cccc32)C1 (stereo not drawn),16.19,23.68
COc1cccc(-c2cccc(N3CCC(N[C@@H]4CCOC4)CC3)c2)c1,11.42,12.24
O=C(Nc1ccc(F)cc1)C1CNCCN1C(=O)CC1CCCCC1 (stereo not drawn),24.17,6
CC(=O)N1CCCN(Cc2csc(C)n2)c2ccccc21,-32.82,13.33
Cn1nc(C(=O)N2CCSCC2)cc1NC(=O)c1ccccc1,1.414,7.143
CC(C)(C)Cc1noc2ncc(C(=O)N3CCC3)cc12,-11.48,0
COc1cccc(C2CCN2C(=O)c2cnccn2)c1 (stereo not drawn),-8.562,-8
Cc1nc(N2CCOCC2)nc2c1CCN(Cc1nccn1C)CC2,-11.83,9.901
CN(C)C1CN(C(=O)Nc2cccc(OC(F)F)c2)C1,-13.25,7.563
Cc1ncsc1CN1C[C@@H]2COC[C@]2(CNC(=O)c2ccccc2)C1,-0.9052,20.51
O=C(c1ccc(S(=O)(=O)NCc2ccon2)cc1)N1CCCCCC1,0.2691,11.48
CC(=O)NCC(=O)N1CCc2nc(-c3ccccc3)nc(C)c2CC1,-30.29,18.8
CN1CCc2[nH]cnc2C12CCN(Cc1ccc3nsnc3c1)CC2,-9.444,17.24
CC(C)(N)C(=O)N1CCCC1c1cncc(Oc2ccccc2)n1 (stereo not drawn),15.93,14.43
CCc1cnc(N2CC[C@@H]3CN(CCC(C)C)S(=O)(=O)[C@@H]3CC2)nc1,-,25
O=C(NCc1cccc(N2CCCCC2=O)c1)[C@@H](O)c1ccccc1,-20.19,8.264
O=C(NCCN1CCOCC1)Nc1cc(F)ccc1-n1cccn1,-13.43,5.479
OCCN1CCOC2(CCCN(c3ncccn3)C2)C1 (stereo not drawn),-35.98,8
CCC(CNC(=O)c1ccco1)N1CCc2ccccc2C1 (stereo not drawn),-10.74,23.29
CC1=N[C@@]2(CC[C@@H]3CN(Cc4ccccc4F)C[C@@H]32)C(=O)N1CC1CC1,-13.01,9.615
CC(C)C(=O)N1CCN(C(=O)N(C)C)CC2(CC(=O)N(C)C2)C1 (stereo not drawn),19.13,10.26
CC1=C(C(=O)N(C)Cc2noc3c2CCCC3)C(C)NC(=O)N1 (stereo not drawn),-12.48,28.72
COc1ccccc1CNC(=O)Cn1nc(-c2ccc(F)cc2)oc1=O,-7.929,-3.571
C[C@@H]1CN(Cc2cccnc2)C[C@]12CCN(CCN1CCCC1)C2=O,-11.52,6.422
CCN(CC)Cc1cnc2n1CCN(C1CCOC1)CC2 (stereo not drawn),-33.12,12.28
CCCc1nnc2sc(C3CCN(CCOC)CC3)nn12,-13.73,-5.594
CC(C)CC(=O)N1CC(=O)c2sc(Nc3ccc(C#N)cc3)nc2C1,2.864,2.857
CC(C)NC(=O)N1C[C@H](OCc2cccnc2)[C@H]2COC[C@H]21,-20.84,5.556
Cc1ncc(CN(C)C(=O)Nc2cccc(N3CCNC3=O)c2)s1,-5.587,22.86
CN(C)C(=O)COCc1nn(C)c2c1CCN(Cc1ccco1)C2,-25.26,22.37
Cc1cc(C)c2nc(CNC3CCCNC3=O)cc(O)c2c1 (stereo not drawn),-5.421,13.22
Cn1ncc2c1CCCC2NCc1cnc(-c2ccccc2)nc1 (stereo not drawn),-3.336,23.81
O=C(C1CCOCC1)N1CCN(CC2CC2)c2ncccc2C1,0.4498,9
CC(=O)N(Cc1ncc(C)o1)C1CCN(CCCc2cnn(C)c2)C1 (stereo not drawn),-6.268,22.97
CC(=O)N(Cc1ncc(C)o1)C1CCN(Cc2sc(C)nc2C)C1 (stereo not drawn),-11.37,16.81
CCc1nc(NCCc2nc(C)c(C)s2)c2cnn(C)c2n1,-4.674,8.163
CC(C)c1nc(-c2ccc(=O)[nH]n2)n(-c2ccc3c(c2)OCO3)n1,-7.795,15.87
Cc1nn(C)c(C)c1CNCc1ccnc(N2CCOCC2)c1,32.42,-2.703
CCN1CC2(CC1=O)CN(C(C)=O)CCN(S(C)(=O)=O)C2 (stereo not drawn),-25.68,10.26
COc1cc2nc3n(c(=O)c2cc1OC)CCN(C(C)=O)CC3,-41.9,8.333
Cc1cc(N2CCC(O)CC2)nc(C)n1,-7.532,13.68
O=C(COCC1CCCCO1)N1CCN(Cc2ccccc2F)C(=O)C1 (stereo not drawn),11.82,4.301
O=C(CCCC1CCCC1)NS(=O)(=O)CC1CC1,-15.96,13.7
CC1(C)[C@H]2CC=C(CN3CCCn4nc(CNS(C)(=O)=O)cc4C3)[C@@H]1C2,-1.544,10.64
Cn1cc(CN2CCN(CC3(c4ccccc4)CC3)CC2)cn1,29.56,5.634
CCCNC(=O)CNc1ccc2c(c1)N(C(=O)OC(C)(C)C)CCC2,-8.494,31.18
Cc1c(CN2CCCC(C(=O)CCc3ccccc3)C2)cc(C#N)n1C (stereo not drawn),-17.27,0
C1=CCN(c2nc(CC3CC3)nc3c2CCN(C2CCOCC2)CC3)C1,-17.81,20
Cc1n[nH]c(C)c1CCCN(C)Cc1c[nH]nc1-c1ccc(F)cc1,-13.59,-2.857
Cc1cccc(CNC(Cc2ccsc2)c2nccs2)n1 (stereo not drawn),6.281,12.77
CCOc1cccc2c1OCC(C(=O)NS(=O)(=O)c1ccc(Br)s1)=C2,-1.528,-17.54
NCCn1cc(C(=O)N2CCNC(=O)C2c2cccc(F)c2)nn1 (stereo not drawn),-4.117,10.34
O=C1[C@H]2CN(Cc3ccccn3)C[C@H]2CN1c1ccsc1,-1.261,6.422
O=C(Nc1ccccc1OC1CCOC1)c1cc[nH]n1 (stereo not drawn),-1.962,1.408
CC(C)c1nc(CN2CCCN(Cc3nccn3C)CC2)no1,-13.03,6.897
Cc1nc(N2CCOCC2)nc(C)c1NC(=O)Cc1ccc(Cl)cc1,-1.45,-3.478
COc1ccc(NC(=O)C2CCCO2)cc1OCc1cccnc1 (stereo not drawn),-19.99,48.94
Cc1ccnc(C2(C)CCCN2S(=O)(=O)c2cccnc2)n1 (stereo not drawn),10.89,1.408
CC(=O)N1CCCC(C(=O)N2CCN(c3cnn(C)c(=O)c3)CC2)C1 (stereo not drawn),2.979,13.33
CCN(Cc1noc(CC(C)C)n1)Cc1ccccc1C,-31.04,10.26
CCN(Cc1cccc2c1OCCO2)C(=O)NC(C)(C)C,-15.26,15.5
CS(=O)(=O)NCc1nnc2n1CCN(CC1CC1)C2,-26.07,12.03
CCCS(=O)(=O)N1CC[C@H]2O[C@H](c3nnc(C)o3)CC[C@H]21,-19.77,0
NC(=O)c1cnn2c1NCC(CNCC1(c3ccccc3)CCC1)C2 (stereo not drawn),-0.6279,16.67
COCC1c2nnn(C)c2CCN1C(=O)Cc1ccc2c(c1)OCO2 (stereo not drawn),11.05,-4
Cc1ccc(C)c(C(=O)N2CCOC(CCN(C)C)C2)c1 (stereo not drawn),1.613,10.2
O=C1CN(C(=O)c2cc3ccc(Br)cc3[nH]2)CCN1,-3.594,11.67
NC(=O)CN1CC2(CCC1=O)CCN(C(=O)c1ccccc1F)CC2,-5.931,1.235
COc1ccc(-c2n[nH]c(C)c2CC(=O)NCC2CCOCC2)cc1,1.196,10.87